These are yes or no findings as the source states them, for the method shown. Some binding calls cover weakened binding; strength is not graded here.
Columns and labels:
[1] = target: bovine tyroglobulin (cattle) (UniProt P01267); assay: SPR, bovine tyroglobulin on CM5 chip, lectin as analyte
[2] = target: bovine tyroglobulin (cattle) (UniProt P01267); assay: SPR, bovine tyroglobulin (12,095 RU) on CM5 chip, lectin 100 µg/ml, elution with 0.5 M D-mannose
[3] = target: bovine tyroglobulin (cattle) (UniProt P01267); assay: SPR (Biacore), bovine tyroglobulin immobilised on CM5 chip (12,095 RU), lectin 100 µg/ml in HBS-EP at 5 µl/min
[4] = target: bovine tyroglobulin (cattle) (UniProt P01267); assay: SPR (Biacore), residual lectin on bovine tyroglobulin chip after HBS-EP wash and after 0.5 M D-mannose, relative to amount bound (100 %)

Chains of the proteins cited; added tags and fusions are not shown. Residues count along the entry.
UniProt P01267, residues 20-2769: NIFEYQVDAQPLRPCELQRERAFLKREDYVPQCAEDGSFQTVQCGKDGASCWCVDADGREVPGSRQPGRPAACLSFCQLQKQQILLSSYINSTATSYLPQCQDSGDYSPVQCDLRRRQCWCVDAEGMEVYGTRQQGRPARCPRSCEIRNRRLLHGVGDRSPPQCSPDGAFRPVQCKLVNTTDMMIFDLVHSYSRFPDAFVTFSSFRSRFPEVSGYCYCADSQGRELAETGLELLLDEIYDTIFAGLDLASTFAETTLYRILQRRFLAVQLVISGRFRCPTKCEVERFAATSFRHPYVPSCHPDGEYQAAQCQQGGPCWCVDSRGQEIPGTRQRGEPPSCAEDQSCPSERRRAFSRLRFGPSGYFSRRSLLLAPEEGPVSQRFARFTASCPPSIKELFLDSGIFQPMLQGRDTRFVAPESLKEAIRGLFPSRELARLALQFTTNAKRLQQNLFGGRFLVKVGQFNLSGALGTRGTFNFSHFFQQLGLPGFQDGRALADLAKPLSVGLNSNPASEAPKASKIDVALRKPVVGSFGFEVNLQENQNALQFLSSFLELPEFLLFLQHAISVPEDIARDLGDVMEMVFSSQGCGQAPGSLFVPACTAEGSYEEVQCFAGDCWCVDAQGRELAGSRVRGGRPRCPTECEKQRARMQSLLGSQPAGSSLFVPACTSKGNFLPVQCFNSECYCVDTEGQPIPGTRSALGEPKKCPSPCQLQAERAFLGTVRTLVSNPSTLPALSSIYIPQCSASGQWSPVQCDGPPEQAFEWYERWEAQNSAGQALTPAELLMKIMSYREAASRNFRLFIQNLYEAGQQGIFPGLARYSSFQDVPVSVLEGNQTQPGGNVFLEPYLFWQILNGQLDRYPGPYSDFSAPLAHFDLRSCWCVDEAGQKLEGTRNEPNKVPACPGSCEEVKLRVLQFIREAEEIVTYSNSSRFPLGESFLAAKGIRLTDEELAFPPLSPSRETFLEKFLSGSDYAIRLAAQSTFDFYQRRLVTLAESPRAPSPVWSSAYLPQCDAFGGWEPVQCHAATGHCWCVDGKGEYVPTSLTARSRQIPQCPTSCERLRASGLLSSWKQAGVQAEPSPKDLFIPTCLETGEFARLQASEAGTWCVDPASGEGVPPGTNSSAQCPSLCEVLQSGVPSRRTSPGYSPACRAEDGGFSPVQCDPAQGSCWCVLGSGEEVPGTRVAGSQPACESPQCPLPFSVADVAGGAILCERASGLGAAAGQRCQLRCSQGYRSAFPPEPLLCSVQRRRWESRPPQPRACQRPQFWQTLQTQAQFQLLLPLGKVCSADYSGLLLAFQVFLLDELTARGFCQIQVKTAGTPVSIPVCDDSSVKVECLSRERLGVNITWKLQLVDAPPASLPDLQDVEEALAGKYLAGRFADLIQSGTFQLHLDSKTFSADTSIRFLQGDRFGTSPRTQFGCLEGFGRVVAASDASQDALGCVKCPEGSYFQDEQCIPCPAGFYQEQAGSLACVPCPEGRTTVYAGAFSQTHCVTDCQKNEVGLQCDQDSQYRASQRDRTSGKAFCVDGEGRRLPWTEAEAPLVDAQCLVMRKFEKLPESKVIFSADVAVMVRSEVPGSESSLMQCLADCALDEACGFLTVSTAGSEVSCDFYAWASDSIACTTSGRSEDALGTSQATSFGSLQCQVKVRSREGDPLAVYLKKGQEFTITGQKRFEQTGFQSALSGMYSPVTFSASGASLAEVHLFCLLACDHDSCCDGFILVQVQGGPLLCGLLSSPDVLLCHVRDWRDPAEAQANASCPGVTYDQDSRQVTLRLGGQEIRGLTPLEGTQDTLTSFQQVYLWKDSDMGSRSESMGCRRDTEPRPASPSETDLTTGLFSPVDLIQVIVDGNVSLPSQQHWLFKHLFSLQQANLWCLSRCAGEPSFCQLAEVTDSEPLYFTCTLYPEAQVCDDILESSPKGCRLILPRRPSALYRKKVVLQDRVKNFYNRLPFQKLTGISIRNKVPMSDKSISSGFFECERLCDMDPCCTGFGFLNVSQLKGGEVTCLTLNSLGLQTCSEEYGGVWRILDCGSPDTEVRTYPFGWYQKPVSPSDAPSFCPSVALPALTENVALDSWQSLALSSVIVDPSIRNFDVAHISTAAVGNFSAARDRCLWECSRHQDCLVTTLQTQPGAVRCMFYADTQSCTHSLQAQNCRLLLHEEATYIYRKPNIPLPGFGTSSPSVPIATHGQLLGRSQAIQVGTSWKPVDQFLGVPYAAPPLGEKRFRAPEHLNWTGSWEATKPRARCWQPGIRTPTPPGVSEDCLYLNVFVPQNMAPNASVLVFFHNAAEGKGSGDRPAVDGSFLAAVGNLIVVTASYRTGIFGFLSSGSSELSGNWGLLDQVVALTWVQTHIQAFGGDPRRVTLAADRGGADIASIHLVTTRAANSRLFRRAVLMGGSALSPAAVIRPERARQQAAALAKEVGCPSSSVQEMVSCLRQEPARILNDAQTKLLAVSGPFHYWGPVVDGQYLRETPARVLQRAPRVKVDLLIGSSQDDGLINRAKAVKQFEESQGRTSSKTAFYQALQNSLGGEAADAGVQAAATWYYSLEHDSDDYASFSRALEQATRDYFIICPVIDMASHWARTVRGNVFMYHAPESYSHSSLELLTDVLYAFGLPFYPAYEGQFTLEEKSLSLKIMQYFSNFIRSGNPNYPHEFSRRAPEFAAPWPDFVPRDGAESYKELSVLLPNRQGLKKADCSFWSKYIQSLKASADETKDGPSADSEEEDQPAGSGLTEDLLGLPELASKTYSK

Measured: binding

B1: BML-17 (protein)
chain: VIYQDPVTSDMFAKIPMPGHRGPWYVCHSSGDWSRNEPVFGRCAIDAKGMVEAYFPYGGKDIKWPSRWSAVITTGVYWGKYNDWKQADCNGGQQVVDGGRGAVTVRMDGISECKGWTTGKSSHNEVWFGCNGKEVGSWISDTPASDVFPICQEYGAAVKIVHMGRAFN
binds: [1] | [2] | [3] | [4]
